Results published in article PMC10516748.
Results are given in words; binding and its absence hold for the method and conditions named. Binding seen in cells or lysates may run through a third protein. Some results given as binding are weak or reduced against the parent protein; the word gives no strength. Tags and fused reporters may be left off the sequences shown.

The chains behind the UniProt entries cited, without tags or fusion partners. Residues count along the entry.
UniProt P05362, residues 28-532: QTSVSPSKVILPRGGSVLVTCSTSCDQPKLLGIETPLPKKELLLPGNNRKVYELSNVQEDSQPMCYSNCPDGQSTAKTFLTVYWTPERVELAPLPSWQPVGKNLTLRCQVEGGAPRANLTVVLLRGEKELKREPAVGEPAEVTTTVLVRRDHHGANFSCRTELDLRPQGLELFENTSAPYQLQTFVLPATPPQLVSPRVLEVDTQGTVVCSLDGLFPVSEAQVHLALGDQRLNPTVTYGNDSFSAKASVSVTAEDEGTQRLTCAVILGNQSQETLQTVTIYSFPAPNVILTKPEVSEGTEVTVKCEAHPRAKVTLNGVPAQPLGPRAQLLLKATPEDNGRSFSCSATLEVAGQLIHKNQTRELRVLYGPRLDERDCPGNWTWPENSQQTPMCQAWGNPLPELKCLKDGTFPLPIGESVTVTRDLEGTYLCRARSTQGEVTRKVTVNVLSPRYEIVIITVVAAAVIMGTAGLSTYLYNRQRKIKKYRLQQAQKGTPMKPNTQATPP

Biological target: T1, ICAM2-His(6x) (UniProt P13598)
T1 sequence: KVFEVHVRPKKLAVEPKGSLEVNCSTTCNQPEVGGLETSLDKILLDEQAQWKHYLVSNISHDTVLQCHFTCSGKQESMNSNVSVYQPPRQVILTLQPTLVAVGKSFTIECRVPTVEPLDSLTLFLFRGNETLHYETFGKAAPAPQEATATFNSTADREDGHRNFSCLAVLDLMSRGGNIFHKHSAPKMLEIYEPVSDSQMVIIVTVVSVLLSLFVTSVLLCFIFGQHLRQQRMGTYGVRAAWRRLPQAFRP
Test: pull-down; purified ICAM2-His(6x) as bait, endogenous proteins of choroid plexus epithelial cells as prey, western blotting; only the target purified

- binding: binds
Substance: endogenous ICAM1 of choroid plexus epithelial cells (from UniProt P05362 28-532)
